# Reference: US20250353921A1
# The chains behind the UniProt entries cited, without tags or fusion partners. Where a name states a change or a piece, a line headed by the entry shows the natural chain unless it says otherwise.
# UniProt P43489: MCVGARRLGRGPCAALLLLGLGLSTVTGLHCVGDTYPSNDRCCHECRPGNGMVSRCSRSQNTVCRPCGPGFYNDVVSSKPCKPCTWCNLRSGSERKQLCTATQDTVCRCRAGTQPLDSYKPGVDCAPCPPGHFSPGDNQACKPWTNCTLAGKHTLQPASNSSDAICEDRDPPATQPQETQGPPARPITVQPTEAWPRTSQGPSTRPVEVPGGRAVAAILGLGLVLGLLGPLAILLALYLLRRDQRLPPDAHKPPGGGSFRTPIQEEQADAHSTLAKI
# No constants are given. Whether binding was seen depends on the method and setting. Some entries that bind do so weakly or less than the wild type. Sequences can lack the tags named with a protein.
# Columns and labels:
# [1] = target: human OX40-CRD-avi-his (human) (UniProt P43489); experiment: SPR kinetic screen (Biacore T200): test protein captured on an anti-human capture chip, human OX40 injected about 0-180 s, then dissociation; curves normalised to 0 at the end of the injection. The legend names human OX40-CRD-avi-his, the method human OX40-ECD-his at 1 µM
# [2] = target: human OX40-ECD-his (human) (UniProt P43489); experiment: SPR Biacore T200 kinetic screen, scFv-Fc captured, antigen at 1 µM
binder,measurement,setting,value
"MAB1 scFv-Fc fusion protein (Fc fusion, not shown: a dimerising Fc or GST) QVTLKESGPALVKPTQTLTLTCSFSGFSLSTSGMGVGWIRQPPGKALEWIAHIWWDDDKYYNTALKTRLTISKDTSKNQVVLTMTNMDPVDTATYYCARIDWDGFAYWGQGTLVTVSSGGGGSGGGGSGGGGSEIVLTQSPATLSLSPGERATLSCRASSSVSYMHWYQQKPGQAPRPWIYATSNRATGIPARFSGSGSGTDYTLTISSLEPEDFAVYYCQQFGAWPWTFGQGTKVEIKGGGG",binding,[1],binds
same,binding,[2],binds
